In patent US8071368B2 (Alizé Pharma SAS, priority 2001, dated 2011):

Experiment: peptide synthesis
Conditions: whole synthesis, HPLC, tifluoroacetate salt

Substance: NH2Gly-Ser-Ser-Phe-Leu-Ser-Pro-Glu-His-Gln-Arg-Val-Gln-Gln-Arg-Lys-Glu-Ser-Lys-Lys-Pro-Pro-Ala-Lys-Leu-Gln-Pro-Arg (GSSFLSPEHQRVQQRKESKKPPAKLQPR; synthetic polypeptide unacylated ghrelin)
- purity (crude or final not stated): 95.1%
